Experimental data: paper PMC5470993, “Discovery and characterization of small molecule Rac1 inhibitors” (Oncotarget, 2017)

Amino acid sequences for entries named in this document (tags omitted). A change or cut given only in a name is not applied to a line headed by its entry.
UniProt Q8C6B2: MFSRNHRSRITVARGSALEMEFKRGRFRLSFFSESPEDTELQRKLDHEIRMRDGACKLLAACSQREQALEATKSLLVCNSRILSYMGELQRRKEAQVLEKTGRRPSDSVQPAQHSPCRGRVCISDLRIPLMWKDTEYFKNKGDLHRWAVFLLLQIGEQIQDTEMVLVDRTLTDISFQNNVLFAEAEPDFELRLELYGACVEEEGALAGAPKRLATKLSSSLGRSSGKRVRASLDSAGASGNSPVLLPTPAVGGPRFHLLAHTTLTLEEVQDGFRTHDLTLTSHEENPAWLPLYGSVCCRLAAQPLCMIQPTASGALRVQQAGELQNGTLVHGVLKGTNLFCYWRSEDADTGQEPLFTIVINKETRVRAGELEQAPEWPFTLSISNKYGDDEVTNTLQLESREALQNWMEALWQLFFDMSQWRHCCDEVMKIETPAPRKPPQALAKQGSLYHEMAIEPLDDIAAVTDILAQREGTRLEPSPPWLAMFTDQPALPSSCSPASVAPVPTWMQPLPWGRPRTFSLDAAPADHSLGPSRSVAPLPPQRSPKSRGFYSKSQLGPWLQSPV
UniProt P61586: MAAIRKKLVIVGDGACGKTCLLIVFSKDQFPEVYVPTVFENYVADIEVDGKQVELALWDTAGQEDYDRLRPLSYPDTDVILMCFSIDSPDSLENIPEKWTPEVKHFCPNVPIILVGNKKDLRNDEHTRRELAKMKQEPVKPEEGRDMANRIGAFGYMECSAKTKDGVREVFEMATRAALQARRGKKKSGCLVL

Target: GST-Rhotekin-RBD (7-89aa) (UniProt Q8C6B2)
Experiment: pull-down; CD18/HPAF cell lysates (1% Triton X-100, 10 mM MgCl2, 4°C) incubated 1 h with agarose beads coated with GST-PAK1, GST-WASP or GST-Rhotekin; immunoblot for Rac1, Cdc42 or RhoA; cells treated with vehicle, compounds #1-#10, NSC23766 or EGF, or lysate with 1 mM GDP; only the target purified

RhoA (endogenous, CD18/HPAF cells), GTP-bound (from UniProt P61586 1-193)
binding: binds

No constants are given. Whether binding was seen depends on the method and setting. Binding seen in cells or lysates may run through a third protein. Binding calls can cover weak binding; strength is not graded here.
